# Measured values from paper PMC10590414.
# Sequences of proteins named here, by UniProt entry; tags and fusion partners are left off.
# UniProt Q02248: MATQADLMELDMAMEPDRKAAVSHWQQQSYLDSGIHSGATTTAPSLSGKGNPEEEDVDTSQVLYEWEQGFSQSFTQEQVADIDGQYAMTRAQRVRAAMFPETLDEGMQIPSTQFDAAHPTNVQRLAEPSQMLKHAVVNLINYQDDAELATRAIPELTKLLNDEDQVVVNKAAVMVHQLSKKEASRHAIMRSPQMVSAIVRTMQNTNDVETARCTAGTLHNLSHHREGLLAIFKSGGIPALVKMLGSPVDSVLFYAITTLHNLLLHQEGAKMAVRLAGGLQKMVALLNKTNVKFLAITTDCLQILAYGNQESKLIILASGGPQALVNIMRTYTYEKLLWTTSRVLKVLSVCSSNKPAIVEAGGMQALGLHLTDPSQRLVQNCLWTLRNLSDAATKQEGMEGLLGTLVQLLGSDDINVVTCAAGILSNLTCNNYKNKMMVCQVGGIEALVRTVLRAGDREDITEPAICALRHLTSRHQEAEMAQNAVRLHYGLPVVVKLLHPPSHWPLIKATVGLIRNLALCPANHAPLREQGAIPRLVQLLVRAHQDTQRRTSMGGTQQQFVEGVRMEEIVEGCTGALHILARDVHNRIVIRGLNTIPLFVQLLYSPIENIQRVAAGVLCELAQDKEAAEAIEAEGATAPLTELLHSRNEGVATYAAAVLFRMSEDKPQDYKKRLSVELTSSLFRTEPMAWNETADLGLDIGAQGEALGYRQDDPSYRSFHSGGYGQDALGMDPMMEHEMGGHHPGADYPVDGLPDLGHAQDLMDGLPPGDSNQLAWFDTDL
# UniProt P35222: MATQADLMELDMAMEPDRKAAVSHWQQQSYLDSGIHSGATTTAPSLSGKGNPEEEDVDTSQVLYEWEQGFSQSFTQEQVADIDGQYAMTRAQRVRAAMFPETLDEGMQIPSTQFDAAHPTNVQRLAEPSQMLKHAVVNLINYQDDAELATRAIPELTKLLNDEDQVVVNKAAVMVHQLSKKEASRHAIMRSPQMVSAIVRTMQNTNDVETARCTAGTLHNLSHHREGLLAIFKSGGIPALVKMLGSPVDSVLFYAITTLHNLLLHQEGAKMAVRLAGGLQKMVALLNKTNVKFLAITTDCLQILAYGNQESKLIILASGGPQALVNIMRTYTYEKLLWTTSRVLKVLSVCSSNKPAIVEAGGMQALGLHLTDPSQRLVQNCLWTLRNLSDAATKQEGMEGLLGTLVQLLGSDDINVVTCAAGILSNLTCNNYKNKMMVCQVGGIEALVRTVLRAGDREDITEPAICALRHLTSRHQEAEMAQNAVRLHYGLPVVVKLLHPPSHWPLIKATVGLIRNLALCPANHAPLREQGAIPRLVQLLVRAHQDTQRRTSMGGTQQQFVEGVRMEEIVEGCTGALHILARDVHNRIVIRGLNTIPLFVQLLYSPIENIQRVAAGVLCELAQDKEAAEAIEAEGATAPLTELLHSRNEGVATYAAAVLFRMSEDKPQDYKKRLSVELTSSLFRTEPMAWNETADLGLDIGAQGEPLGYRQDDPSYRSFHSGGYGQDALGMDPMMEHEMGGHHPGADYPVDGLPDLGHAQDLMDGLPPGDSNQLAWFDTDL
# UniProt O35625: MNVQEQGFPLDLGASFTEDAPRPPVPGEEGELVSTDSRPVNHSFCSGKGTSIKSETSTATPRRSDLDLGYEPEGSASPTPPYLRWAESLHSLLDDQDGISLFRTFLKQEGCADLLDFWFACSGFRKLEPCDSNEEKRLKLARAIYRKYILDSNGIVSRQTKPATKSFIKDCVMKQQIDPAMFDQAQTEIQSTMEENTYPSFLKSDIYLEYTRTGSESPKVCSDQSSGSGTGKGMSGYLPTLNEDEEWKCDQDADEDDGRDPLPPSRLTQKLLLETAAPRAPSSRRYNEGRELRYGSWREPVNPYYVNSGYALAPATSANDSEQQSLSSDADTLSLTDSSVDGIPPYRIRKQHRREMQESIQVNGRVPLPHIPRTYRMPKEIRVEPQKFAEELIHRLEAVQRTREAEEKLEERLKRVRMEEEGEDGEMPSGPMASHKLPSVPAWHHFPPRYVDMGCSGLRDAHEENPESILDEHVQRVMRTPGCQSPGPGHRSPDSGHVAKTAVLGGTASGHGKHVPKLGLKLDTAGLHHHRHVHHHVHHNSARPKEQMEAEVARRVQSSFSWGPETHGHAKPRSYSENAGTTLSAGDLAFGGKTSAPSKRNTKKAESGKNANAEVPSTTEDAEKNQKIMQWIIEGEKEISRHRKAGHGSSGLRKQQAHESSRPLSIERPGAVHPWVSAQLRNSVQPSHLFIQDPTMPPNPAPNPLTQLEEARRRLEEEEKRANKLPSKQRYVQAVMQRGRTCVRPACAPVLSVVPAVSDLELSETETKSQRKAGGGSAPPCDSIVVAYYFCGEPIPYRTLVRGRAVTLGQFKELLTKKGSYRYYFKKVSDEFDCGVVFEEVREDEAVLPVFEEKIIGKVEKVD
# UniProt P97823: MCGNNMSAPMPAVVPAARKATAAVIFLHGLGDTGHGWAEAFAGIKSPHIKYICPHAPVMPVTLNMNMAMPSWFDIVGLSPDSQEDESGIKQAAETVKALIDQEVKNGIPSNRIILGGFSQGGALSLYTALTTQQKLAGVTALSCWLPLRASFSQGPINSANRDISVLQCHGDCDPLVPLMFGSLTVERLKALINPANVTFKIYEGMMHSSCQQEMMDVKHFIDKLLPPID
# UniProt Q8BK63: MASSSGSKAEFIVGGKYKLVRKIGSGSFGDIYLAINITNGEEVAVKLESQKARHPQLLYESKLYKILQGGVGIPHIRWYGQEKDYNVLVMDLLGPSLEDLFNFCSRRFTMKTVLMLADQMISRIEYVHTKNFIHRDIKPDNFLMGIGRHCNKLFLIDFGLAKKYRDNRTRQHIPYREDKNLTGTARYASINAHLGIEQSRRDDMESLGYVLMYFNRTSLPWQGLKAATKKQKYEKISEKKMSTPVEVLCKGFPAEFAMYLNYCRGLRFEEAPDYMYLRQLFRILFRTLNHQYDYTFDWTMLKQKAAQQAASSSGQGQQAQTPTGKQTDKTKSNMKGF
# UniProt P59268: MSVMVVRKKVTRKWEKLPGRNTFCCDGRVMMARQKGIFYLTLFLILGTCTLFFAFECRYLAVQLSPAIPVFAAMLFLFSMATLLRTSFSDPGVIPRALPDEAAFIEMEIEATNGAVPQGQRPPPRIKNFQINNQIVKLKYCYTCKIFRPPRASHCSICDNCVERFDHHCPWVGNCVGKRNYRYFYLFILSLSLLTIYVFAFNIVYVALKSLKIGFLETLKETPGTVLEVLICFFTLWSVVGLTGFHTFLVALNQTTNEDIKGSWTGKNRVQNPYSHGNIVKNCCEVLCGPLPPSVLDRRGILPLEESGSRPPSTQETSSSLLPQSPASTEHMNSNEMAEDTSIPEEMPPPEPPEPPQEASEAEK
# Results are given in words; binding and its absence hold for the method and conditions named. Binding seen in cells or lysates may run through a third protein. Some binding calls cover weakened binding; strength is not graded here.
# Key:
# Flag-tagged WT β-catenin = Flag-tagged WT β-catenin (UniProt Q02248); experiment: co-IP; one partner exogenous (Flag-tagged β-catenin WT or C300S, or exogenous APT1) in transfected PTCs; IP lysis buffer, 1 ug primary antibody overnight at 4 °C, protein A/G PLUS-agarose, immunoblot
# [1] = target: β-catenin (endogenous, primary tubular epithelial cells) (mouse (endogenous in PTCs)) (UniProt Q02248); experiment: co-IP; endogenous proteins in lysates of mouse primary tubular cells (PTCs); IP lysis buffer, 1 ug primary antibody overnight at 4 °C, protein A/G PLUS-agarose, immunoblot; cells with DHHC9 siRNA or adenovirus, APT1 siRNA or plasmid
# [2] = target: β-catenin (endogenous, primary tubular epithelial cells) (mouse (endogenous in PTCs)) (UniProt Q02248); experiment: co-IP; one partner exogenous (Flag-tagged β-catenin WT or C300S, or exogenous APT1) in transfected PTCs; IP lysis buffer, 1 ug primary antibody overnight at 4 °C, protein A/G PLUS-agarose, immunoblot
# [3] = target: β-catenin (co-precipitated with exogenous DHHC9, Fig. 5d) (UniProt P35222); experiment: co-IP; exogenous DHHC9 in HEK 293 A cells after treatment with lactacystin at 20 mM for 6 hours (legend; the text says PTCs); IP lysis buffer, 1 ug primary antibody overnight at 4 °C, protein A/G PLUS-agarose, immunoblot
Substance,binding [1],also measured
Axin (from UniProt O35625 1-863),binds,binding (Flag-tagged WT β-catenin): binds
"acyl protein thioesterase 1 (APT1), endogenous (from UniProt P97823 1-230) (enzyme)",binds,–
casein kinase (CK) 1α (from UniProt Q8BK63 1-337) (enzyme),binds,–
exogenous APT1 (from UniProt P97823 1-230) (enzyme),–,binding [2]: binds
exogenous DHHC9 (from UniProt P59268 1-364) (enzyme),–,binding [3]: binds
